Assay results published in the supplement of paper PMC12823440, “Inhibitors supercharge kinase turnover through native proteolytic circuits” (Nature, 2025).
The other results are listed elsewhere or left out. Hit calls seldom repeat between salt and free forms of one compound.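 Kinases, fused to nanoluciferase, were expressed in K562 cells; luminescence was measured every 4 h from 2 to 18 h as percent of control (DMSO = 100%, positive control = 0%). A time point is decreased if signal falls significantly (2 sigma). Hits were called by the authors by a rule that is not shown; the count of time points alone does not decide it.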

Amino acid sequences for entries named in this document (tags omitted). A change or cut given only in a name is not applied to a line headed by its entry.
UniProt P50613: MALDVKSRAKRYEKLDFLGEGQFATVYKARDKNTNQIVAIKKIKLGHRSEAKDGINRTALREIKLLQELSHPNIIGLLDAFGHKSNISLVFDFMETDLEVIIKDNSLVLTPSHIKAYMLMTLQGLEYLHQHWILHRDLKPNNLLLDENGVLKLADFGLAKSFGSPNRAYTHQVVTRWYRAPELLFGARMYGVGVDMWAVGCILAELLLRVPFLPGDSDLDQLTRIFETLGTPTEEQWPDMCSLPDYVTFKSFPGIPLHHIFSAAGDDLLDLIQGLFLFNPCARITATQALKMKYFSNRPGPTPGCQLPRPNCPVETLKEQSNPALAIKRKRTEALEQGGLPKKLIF
UniProt P50750, whole entry: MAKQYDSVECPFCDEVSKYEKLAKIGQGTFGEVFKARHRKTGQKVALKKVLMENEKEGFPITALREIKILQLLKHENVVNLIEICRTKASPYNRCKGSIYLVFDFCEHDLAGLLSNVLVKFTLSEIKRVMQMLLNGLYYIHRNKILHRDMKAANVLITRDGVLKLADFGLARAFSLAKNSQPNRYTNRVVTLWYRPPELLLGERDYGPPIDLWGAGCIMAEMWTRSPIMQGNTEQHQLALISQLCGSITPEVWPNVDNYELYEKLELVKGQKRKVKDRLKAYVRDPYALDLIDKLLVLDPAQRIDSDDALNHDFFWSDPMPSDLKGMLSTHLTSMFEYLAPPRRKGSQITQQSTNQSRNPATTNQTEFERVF
UniProt O96017, whole entry: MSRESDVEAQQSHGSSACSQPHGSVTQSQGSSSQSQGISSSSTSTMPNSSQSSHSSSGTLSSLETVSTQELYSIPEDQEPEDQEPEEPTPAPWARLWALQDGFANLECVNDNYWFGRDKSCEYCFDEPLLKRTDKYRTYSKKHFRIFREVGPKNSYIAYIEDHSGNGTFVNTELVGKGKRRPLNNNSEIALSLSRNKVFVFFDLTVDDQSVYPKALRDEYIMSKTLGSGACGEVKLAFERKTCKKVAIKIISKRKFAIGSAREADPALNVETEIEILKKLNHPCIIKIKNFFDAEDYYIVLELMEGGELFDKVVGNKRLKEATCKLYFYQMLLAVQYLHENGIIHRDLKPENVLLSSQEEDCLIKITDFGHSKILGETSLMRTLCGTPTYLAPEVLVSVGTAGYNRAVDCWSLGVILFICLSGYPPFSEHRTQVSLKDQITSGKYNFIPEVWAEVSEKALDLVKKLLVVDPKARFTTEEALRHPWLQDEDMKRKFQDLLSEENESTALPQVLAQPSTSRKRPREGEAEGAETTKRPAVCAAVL
UniProt P07333, whole entry: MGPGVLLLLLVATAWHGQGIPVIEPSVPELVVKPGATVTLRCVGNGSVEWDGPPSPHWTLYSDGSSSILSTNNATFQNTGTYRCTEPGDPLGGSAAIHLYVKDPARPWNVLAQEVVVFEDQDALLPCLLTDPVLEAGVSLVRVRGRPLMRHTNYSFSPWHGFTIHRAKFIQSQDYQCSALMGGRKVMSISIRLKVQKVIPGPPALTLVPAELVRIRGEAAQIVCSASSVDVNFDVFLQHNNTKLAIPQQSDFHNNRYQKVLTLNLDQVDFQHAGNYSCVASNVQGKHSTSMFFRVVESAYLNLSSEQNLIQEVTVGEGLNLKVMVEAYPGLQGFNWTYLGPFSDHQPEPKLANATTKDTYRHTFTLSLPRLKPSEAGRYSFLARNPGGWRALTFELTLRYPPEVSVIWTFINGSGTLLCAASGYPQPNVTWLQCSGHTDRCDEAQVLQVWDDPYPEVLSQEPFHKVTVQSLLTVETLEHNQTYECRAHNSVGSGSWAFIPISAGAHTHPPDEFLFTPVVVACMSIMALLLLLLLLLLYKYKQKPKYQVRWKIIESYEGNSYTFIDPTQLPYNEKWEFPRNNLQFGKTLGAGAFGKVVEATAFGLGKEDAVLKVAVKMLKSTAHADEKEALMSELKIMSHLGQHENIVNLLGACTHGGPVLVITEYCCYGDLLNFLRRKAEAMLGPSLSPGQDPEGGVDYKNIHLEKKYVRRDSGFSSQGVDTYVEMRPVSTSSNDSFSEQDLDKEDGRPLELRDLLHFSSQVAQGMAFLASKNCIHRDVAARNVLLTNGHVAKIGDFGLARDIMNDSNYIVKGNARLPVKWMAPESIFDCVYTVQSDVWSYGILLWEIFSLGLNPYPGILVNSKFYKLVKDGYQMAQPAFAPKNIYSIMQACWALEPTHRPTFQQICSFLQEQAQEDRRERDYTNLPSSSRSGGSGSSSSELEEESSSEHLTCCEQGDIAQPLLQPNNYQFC
UniProt P41240: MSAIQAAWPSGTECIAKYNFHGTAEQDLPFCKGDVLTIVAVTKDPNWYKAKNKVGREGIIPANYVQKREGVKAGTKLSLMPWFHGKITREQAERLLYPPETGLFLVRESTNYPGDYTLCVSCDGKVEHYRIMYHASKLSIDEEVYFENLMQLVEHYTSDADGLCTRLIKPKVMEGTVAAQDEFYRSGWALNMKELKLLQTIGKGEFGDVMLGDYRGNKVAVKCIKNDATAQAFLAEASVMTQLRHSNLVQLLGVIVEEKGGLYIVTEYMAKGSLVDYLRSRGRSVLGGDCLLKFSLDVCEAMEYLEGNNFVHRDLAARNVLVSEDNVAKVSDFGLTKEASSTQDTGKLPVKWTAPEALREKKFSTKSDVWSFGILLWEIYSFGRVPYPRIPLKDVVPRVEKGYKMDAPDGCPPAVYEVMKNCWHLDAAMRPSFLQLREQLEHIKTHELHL
UniProt P48729: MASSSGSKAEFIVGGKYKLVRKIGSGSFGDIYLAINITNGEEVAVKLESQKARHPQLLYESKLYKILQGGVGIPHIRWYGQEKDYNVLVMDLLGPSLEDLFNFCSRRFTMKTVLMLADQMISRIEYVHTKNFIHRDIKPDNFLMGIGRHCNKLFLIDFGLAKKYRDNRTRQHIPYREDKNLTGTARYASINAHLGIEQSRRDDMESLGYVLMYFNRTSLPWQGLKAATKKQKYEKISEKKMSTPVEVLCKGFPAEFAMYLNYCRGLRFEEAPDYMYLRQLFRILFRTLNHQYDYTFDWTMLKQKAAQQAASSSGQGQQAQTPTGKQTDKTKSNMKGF
UniProt Q08345: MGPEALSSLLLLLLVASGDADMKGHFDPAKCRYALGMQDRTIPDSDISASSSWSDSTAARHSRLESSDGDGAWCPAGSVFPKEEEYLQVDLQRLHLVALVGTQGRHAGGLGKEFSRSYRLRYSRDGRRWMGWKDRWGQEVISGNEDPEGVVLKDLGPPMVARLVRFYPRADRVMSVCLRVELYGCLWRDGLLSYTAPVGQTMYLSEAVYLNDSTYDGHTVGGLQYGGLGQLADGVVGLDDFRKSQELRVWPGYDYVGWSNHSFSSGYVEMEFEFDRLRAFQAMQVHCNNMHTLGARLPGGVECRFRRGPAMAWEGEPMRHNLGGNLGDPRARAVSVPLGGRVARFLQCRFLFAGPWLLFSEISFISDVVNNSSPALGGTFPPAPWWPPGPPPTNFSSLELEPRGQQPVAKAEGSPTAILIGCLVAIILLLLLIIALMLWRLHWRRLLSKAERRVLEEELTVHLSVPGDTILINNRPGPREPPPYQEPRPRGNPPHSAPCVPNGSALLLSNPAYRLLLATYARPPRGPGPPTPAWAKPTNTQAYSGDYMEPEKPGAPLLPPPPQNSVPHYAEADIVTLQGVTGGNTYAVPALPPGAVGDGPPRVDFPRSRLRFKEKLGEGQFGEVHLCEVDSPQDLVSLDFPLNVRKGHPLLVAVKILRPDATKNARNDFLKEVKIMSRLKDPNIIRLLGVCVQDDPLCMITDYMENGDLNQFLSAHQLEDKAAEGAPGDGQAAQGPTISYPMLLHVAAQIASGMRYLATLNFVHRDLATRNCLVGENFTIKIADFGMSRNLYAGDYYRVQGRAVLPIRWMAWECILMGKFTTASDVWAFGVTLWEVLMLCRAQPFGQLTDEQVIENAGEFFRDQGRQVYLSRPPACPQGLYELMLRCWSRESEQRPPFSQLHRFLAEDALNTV
UniProt Q9Y463, whole entry, looked up: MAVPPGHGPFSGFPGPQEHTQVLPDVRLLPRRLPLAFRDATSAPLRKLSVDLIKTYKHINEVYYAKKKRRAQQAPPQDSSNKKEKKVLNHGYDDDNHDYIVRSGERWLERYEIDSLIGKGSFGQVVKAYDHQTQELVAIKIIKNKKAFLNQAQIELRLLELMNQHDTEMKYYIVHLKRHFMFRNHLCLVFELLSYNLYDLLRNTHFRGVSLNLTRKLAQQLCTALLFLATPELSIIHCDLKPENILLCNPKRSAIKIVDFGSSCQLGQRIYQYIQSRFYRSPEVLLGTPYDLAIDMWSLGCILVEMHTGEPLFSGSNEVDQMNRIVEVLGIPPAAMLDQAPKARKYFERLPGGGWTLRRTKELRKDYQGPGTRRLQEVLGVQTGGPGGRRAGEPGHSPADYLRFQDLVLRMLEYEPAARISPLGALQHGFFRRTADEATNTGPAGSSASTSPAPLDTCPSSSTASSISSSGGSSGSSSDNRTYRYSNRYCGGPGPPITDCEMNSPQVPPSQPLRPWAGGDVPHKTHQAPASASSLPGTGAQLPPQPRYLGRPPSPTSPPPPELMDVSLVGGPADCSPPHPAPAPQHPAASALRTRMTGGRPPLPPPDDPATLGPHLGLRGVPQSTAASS
UniProt Q92630: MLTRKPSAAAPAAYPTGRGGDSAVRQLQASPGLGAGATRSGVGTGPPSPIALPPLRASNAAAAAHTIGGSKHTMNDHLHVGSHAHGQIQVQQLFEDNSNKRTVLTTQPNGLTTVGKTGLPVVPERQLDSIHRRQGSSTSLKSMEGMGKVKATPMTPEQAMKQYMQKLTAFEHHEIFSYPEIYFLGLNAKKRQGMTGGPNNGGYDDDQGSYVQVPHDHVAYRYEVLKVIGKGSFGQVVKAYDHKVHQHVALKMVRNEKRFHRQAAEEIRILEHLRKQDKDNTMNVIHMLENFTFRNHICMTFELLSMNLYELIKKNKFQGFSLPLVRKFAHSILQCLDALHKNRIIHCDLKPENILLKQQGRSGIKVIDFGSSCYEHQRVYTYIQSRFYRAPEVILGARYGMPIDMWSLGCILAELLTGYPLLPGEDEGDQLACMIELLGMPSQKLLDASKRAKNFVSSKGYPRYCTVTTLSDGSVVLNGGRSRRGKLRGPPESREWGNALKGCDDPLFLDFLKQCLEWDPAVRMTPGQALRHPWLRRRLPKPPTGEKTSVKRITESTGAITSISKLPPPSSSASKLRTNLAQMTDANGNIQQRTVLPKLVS
UniProt Q15303, whole entry R711C: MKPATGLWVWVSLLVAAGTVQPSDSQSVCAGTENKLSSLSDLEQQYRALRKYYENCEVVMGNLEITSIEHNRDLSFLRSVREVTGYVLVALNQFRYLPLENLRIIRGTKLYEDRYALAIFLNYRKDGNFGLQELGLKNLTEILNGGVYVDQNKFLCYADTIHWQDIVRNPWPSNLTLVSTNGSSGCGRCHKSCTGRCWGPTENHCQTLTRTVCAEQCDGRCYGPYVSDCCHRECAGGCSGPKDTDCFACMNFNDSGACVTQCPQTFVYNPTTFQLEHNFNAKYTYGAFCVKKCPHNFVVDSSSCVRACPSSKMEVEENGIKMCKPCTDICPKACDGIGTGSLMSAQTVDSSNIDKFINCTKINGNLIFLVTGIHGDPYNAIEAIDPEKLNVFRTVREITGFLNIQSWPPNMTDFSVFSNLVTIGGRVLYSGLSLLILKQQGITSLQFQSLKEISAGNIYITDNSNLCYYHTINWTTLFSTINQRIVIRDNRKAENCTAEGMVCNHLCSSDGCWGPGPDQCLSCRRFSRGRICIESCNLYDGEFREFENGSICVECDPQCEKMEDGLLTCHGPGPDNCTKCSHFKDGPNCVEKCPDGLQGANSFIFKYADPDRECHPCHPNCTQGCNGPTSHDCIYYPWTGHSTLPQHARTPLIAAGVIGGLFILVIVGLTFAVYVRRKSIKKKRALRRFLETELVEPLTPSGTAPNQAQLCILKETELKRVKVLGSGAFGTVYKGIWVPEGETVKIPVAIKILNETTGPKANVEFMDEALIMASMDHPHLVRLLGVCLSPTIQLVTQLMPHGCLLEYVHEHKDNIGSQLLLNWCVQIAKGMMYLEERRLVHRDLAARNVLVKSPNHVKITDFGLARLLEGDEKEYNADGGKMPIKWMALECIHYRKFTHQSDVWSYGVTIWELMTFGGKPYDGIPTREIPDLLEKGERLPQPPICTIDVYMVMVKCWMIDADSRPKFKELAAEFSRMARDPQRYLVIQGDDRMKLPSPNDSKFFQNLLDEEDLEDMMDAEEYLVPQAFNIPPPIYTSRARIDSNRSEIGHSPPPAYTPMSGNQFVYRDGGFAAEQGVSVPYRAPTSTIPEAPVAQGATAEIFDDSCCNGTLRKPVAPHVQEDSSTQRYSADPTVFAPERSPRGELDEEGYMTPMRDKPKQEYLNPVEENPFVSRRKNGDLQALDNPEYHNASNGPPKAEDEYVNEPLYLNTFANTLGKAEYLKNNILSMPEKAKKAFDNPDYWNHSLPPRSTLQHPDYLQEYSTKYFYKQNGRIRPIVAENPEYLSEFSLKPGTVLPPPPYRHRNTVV

Key:
Assay in all cases: kinase-Nluc reporter destabilization hit call (1 = scored as downregulated) (binary); higher = compound decreases kinase abundance
Conditions in all cases: K562; 2-18 h
CDK7 = CDK7 (UniProt P50613)
CDK9 = CDK9 (UniProt P50750)
CHEK2 = CHEK2 (UniProt O96017)
CSF1R = CSF1R (UniProt P07333)
CSK = CSK (UniProt P41240)
CSNK1A1 = CSNK1A1 (UniProt P48729)
CSNK1D = CSNK1D (UniProt P48730)
DDR1 = DDR1 (UniProt Q08345)
DYRK1B = DYRK1B (UniProt Q9Y463)
DYRK2 = DYRK2 (UniProt Q92630)
EGFR = EGFR (UniProt P00533)
EGFR_G719S = EGFR_G719S (UniProt P00533)
EGFR_G719S_T790M = EGFR_G719S_T790M (UniProt P00533)
EGFR_L718V = EGFR_L718V (UniProt P00533)
EGFR_L858R = EGFR_L858R (UniProt P00533)
EGFR_L861Q = EGFR_L861Q (UniProt P00533)
EGFR_T790M = EGFR_T790M (UniProt P00533)
EPHA2 = EPHA2 (UniProt P29317)
ERBB3 = ERBB3 (UniProt P21860)
[1] = molecular target: ERBB4_R711C (clone: ERBB4_mut) (UniProt Q15303)

Row | SMILES | kinase-Nluc reporter destabilization hit call (CDK7) | kinase-Nluc reporter destabilization hit call (CDK9) | kinase-Nluc reporter destabilization hit call (CHEK2) | kinase-Nluc reporter destabilization hit call (CSF1R) | kinase-Nluc reporter destabilization hit call (CSK) | kinase-Nluc reporter destabilization hit call (CSNK1A1) | kinase-Nluc reporter destabilization hit call (CSNK1D) | kinase-Nluc reporter destabilization hit call (DDR1) | kinase-Nluc reporter destabilization hit call (DYRK1B) | kinase-Nluc reporter destabilization hit call (DYRK2) | kinase-Nluc reporter destabilization hit call (EGFR) | kinase-Nluc reporter destabilization hit call (EGFR_G719S) | kinase-Nluc reporter destabilization hit call (EGFR_G719S_T790M) | kinase-Nluc reporter destabilization hit call (EGFR_L718V) | kinase-Nluc reporter destabilization hit call (EGFR_L858R) | kinase-Nluc reporter destabilization hit call (EGFR_L861Q) | kinase-Nluc reporter destabilization hit call (EGFR_T790M) | kinase-Nluc reporter destabilization hit call (EPHA2) | kinase-Nluc reporter destabilization hit call (ERBB3) | kinase-Nluc reporter destabilization hit call [1]
1 | C=C(F)C(=O)N1CCN(c2nc(OC[C@@H]3CCCN3C)nc3c2CCN(c2cccc4cccc(Cl)c24)C3)C[C@@H]1CC#N (2.5 µM) | inactive: 0 | inactive: 0 | inactive: 0 | inactive: 0 | inactive: 0 | inactive: 0 | inactive: 0 | inactive: 0 | inactive: 0 | inactive: 0 | inactive: 0 | inactive: 0 | inactive: 0 | inactive: 0 | inactive: 0 | inactive: 0 | inactive: 0 | inactive: 0 | inactive: 0 | inactive: 0
2 | COc1ccc(CNc2nc(N(CCO)CCO)nc3c2ncn3C(C)C)cc1 (2.5 µM) | inactive: 0 | inactive: 0 | inactive: 0 | inactive: 0 | inactive: 0 | inactive: 0 | inactive: 0 | inactive: 0 | inactive: 0 | inactive: 0 | inactive: 0 | inactive: 0 | inactive: 0 | inactive: 0 | inactive: 0 | inactive: 0 | inactive: 0 | inactive: 0 | inactive: 0 | inactive: 0
3 | CC1(N)CCN(c2cnc3c(-c4cccc(Cl)c4Cl)[nH]nc3n2)CC1 (2.5 µM) | inactive: 0 | inactive: 0 | inactive: 0 | inactive: 0 | inactive: 0 | inactive: 0 | inactive: 0 | inactive: 0 | inactive: 0 | inactive: 0 | inactive: 0 | inactive: 0 | inactive: 0 | inactive: 0 | inactive: 0 | inactive: 0 | inactive: 0 | inactive: 0 | inactive: 0 | inactive: 0
4 | O[C@H]1CC[C@H](Nc2ncc3nc(Nc4c(F)cc(F)cc4F)n([C@H]4CCOC4)c3n2)CC1 [Tanzisertib] (10 µM) | inactive: 0 | inactive: 0 | inactive: 0 | inactive: 0 | inactive: 0 | inactive: 0 | inactive: 0 | inactive: 0 | inactive: 0 | inactive: 0 | inactive: 0 | inactive: 0 | inactive: 0 | inactive: 0 | inactive: 0 | inactive: 0 | inactive: 0 | inactive: 0 | inactive: 0 | inactive: 0
5 | COc1cc(C(C)=O)cc(OC)c1O [Acetosyringone] (10 µM) | inactive: 0 | inactive: 0 | inactive: 0 | inactive: 0 | inactive: 0 | inactive: 0 | inactive: 0 | inactive: 0 | inactive: 0 | inactive: 0 | inactive: 0 | inactive: 0 | inactive: 0 | inactive: 0 | inactive: 0 | inactive: 0 | inactive: 0 | inactive: 0 | inactive: 0 | inactive: 0
6 | CN(C)C(=O)c1ccc(S(=O)(=O)c2ccc(NC(=O)[C@@](C)(O)C(F)(F)F)c(Cl)c2)cc1 (10 µM) | inactive: 0 | inactive: 0 | inactive: 0 | inactive: 0 | inactive: 0 | inactive: 0 | inactive: 0 | inactive: 0 | inactive: 0 | inactive: 0 | inactive: 0 | inactive: 0 | inactive: 0 | inactive: 0 | inactive: 0 | inactive: 0 | inactive: 0 | inactive: 0 | inactive: 0 | inactive: 0
7 | C=CS(=O)(=O)c1ccc(Nc2nc(OCC3CCCCC3)c3[nH]cnc3n2)cc1 (2.5 µM) | inactive: 0 | inactive: 0 | inactive: 0 | inactive: 0 | inactive: 0 | inactive: 0 | inactive: 0 | inactive: 0 | inactive: 0 | inactive: 0 | inactive: 0 | inactive: 0 | inactive: 0 | inactive: 0 | inactive: 0 | inactive: 0 | inactive: 0 | inactive: 0 | inactive: 0 | inactive: 0
8 | CC[C@H](Nc1ncnc2[nH]cnc12)c1oc2ccccc2c(=O)c1-c1cccc(F)c1 [Tenalisib] (10 µM) | inactive: 0 | inactive: 0 | inactive: 0 | inactive: 0 | inactive: 0 | inactive: 0 | inactive: 0 | inactive: 0 | inactive: 0 | inactive: 0 | inactive: 0 | inactive: 0 | inactive: 0 | inactive: 0 | inactive: 0 | inactive: 0 | inactive: 0 | inactive: 0 | inactive: 0 | inactive: 0
9 | CCn1nc(C2CCN(C(=O)CCO)CC2)nc1-c1cnc(N)c(-c2nnc(C(C)(C)C)o2)n1 (10 µM) | inactive: 0 | inactive: 0 | inactive: 0 | inactive: 0 | inactive: 0 | inactive: 0 | inactive: 0 | inactive: 0 | inactive: 0 | inactive: 0 | inactive: 0 | inactive: 0 | inactive: 0 | inactive: 0 | inactive: 0 | inactive: 0 | inactive: 0 | inactive: 0 | inactive: 0 | inactive: 0
10 | COc1cc(N2CCC(N(C)C)CC2)ccc1Nc1ncc(Cl)c(Nc2ccccc2P(C)(C)=O)n1 (2.5 µM) | inactive: 0 | inactive: 0 | inactive: 0 | inactive: 0 | inactive: 0 | inactive: 0 | inactive: 0 | inactive: 0 | inactive: 0 | inactive: 0 | inactive: 0 | inactive: 0 | inactive: 0 | inactive: 0 | inactive: 0 | inactive: 0 | inactive: 0 | inactive: 0 | inactive: 0 | inactive: 0
11 | CC1=C(CC(=O)O)c2cc(F)ccc2/C1=C\c1ccc(C(C)C)cc1 (10 µM) | inactive: 0 | inactive: 0 | inactive: 0 | inactive: 0 | inactive: 0 | inactive: 0 | inactive: 0 | inactive: 0 | active: 1 | inactive: 0 | inactive: 0 | inactive: 0 | inactive: 0 | inactive: 0 | inactive: 0 | inactive: 0 | inactive: 0 | inactive: 0 | inactive: 0 | inactive: 0
12 | CC(C)Oc1ccc(-c2cnc3c(-c4ccnc5ccccc45)cnn3c2)cc1 (10 µM) | inactive: 0 | inactive: 0 | inactive: 0 | inactive: 0 | inactive: 0 | inactive: 0 | inactive: 0 | inactive: 0 | inactive: 0 | inactive: 0 | inactive: 0 | inactive: 0 | inactive: 0 | inactive: 0 | inactive: 0 | inactive: 0 | inactive: 0 | inactive: 0 | inactive: 0 | inactive: 0
13 | CCc1cccc(CC)c1NC(=O)c1nn(C)c2c1CCc1cnc(Nc3ccc(C(=O)NC4CCN(C)CC4)cc3OC(F)(F)F)nc1-2 (2 µM) | inactive: 0 | inactive: 0 | inactive: 0 | inactive: 0 | inactive: 0 | inactive: 0 | inactive: 0 | inactive: 0 | inactive: 0 | inactive: 0 | inactive: 0 | inactive: 0 | inactive: 0 | inactive: 0 | inactive: 0 | inactive: 0 | inactive: 0 | inactive: 0 | inactive: 0 | inactive: 0
14 | CNC(=O)c1ccc(-c2cnc3cnc(-c4ccccc4)cn23)cc1 (10 µM) | inactive: 0 | inactive: 0 | inactive: 0 | inactive: 0 | inactive: 0 | inactive: 0 | inactive: 0 | inactive: 0 | inactive: 0 | inactive: 0 | inactive: 0 | inactive: 0 | inactive: 0 | inactive: 0 | inactive: 0 | inactive: 0 | inactive: 0 | inactive: 0 | inactive: 0 | inactive: 0
15 | Nc1[nH]c(=O)nc2c1ncn2[C@@H]1O[C@H](CO)[C@@H](O)[C@H]1O [Crotonoside] (10 µM) | inactive: 0 | inactive: 0 | inactive: 0 | inactive: 0 | inactive: 0 | inactive: 0 | inactive: 0 | inactive: 0 | inactive: 0 | inactive: 0 | inactive: 0 | inactive: 0 | inactive: 0 | inactive: 0 | inactive: 0 | inactive: 0 | inactive: 0 | inactive: 0 | inactive: 0 | inactive: 0
16 | C=CC(=O)Nc1cccc(Oc2nc(Nc3ccc(N4CCN(C)CC4)cc3)nc3ccoc23)c1 [Poseltinib] (10 µM) | inactive: 0 | inactive: 0 | inactive: 0 | inactive: 0 | inactive: 0 | inactive: 0 | inactive: 0 | inactive: 0 | inactive: 0 | inactive: 0 | inactive: 0 | inactive: 0 | inactive: 0 | inactive: 0 | inactive: 0 | inactive: 0 | inactive: 0 | inactive: 0 | inactive: 0 | inactive: 0
17 | CSc1ccc(CN2CCCC(Nc3ccc4[nH]ncc4c3)C2)cc1 (stereo not given) [Rho-Kinase-IN-1] (10 µM) | inactive: 0 | inactive: 0 | inactive: 0 | inactive: 0 | inactive: 0 | inactive: 0 | inactive: 0 | inactive: 0 | inactive: 0 | inactive: 0 | inactive: 0 | inactive: 0 | inactive: 0 | inactive: 0 | inactive: 0 | inactive: 0 | inactive: 0 | inactive: 0 | inactive: 0 | inactive: 0
18 | C[C@@H]1CCc2ncc(F)cc2[C@H]2CCCN2c2ccn3ncc(c3n2)C(=O)N1 [Selitrectinib] (10 µM) | inactive: 0 | inactive: 0 | inactive: 0 | inactive: 0 | inactive: 0 | inactive: 0 | inactive: 0 | inactive: 0 | inactive: 0 | inactive: 0 | inactive: 0 | inactive: 0 | inactive: 0 | inactive: 0 | inactive: 0 | inactive: 0 | inactive: 0 | inactive: 0 | inactive: 0 | inactive: 0

Another view of two compounds above:
Row,SMILES,kinase-Nluc reporter destabilization hit call (CDK7),kinase-Nluc reporter destabilization hit call (CDK9),kinase-Nluc reporter destabilization hit call (CHEK2),kinase-Nluc reporter destabilization hit call (CSF1R),kinase-Nluc reporter destabilization hit call (CSK),kinase-Nluc reporter destabilization hit call (CSNK1A1),kinase-Nluc reporter destabilization hit call (CSNK1D),kinase-Nluc reporter destabilization hit call (DDR1),kinase-Nluc reporter destabilization hit call (DYRK1B),kinase-Nluc reporter destabilization hit call (DYRK2),kinase-Nluc reporter destabilization hit call (EGFR),kinase-Nluc reporter destabilization hit call (EGFR_G719S),kinase-Nluc reporter destabilization hit call (EGFR_G719S_T790M),kinase-Nluc reporter destabilization hit call (EGFR_L718V),kinase-Nluc reporter destabilization hit call (EGFR_L858R),kinase-Nluc reporter destabilization hit call (EGFR_L861Q),kinase-Nluc reporter destabilization hit call (EGFR_T790M),kinase-Nluc reporter destabilization hit call (EPHA2),kinase-Nluc reporter destabilization hit call (ERBB3),kinase-Nluc reporter destabilization hit call [1]
9,CCn1nc(C2CCN(C(=O)CCO)CC2)nc1-c1cnc(N)c(-c2nnc(C(C)(C)C)o2)n1 (10 µM),inactive: 0,inactive: 0,inactive: 0,inactive: 0,inactive: 0,inactive: 0,inactive: 0,inactive: 0,inactive: 0,inactive: 0,inactive: 0,inactive: 0,inactive: 0,inactive: 0,inactive: 0,inactive: 0,inactive: 0,inactive: 0,inactive: 0,inactive: 0
10,COc1cc(N2CCC(N(C)C)CC2)ccc1Nc1ncc(Cl)c(Nc2ccccc2P(C)(C)=O)n1 (2.5 µM),inactive: 0,inactive: 0,inactive: 0,inactive: 0,inactive: 0,inactive: 0,inactive: 0,inactive: 0,inactive: 0,inactive: 0,inactive: 0,inactive: 0,inactive: 0,inactive: 0,inactive: 0,inactive: 0,inactive: 0,inactive: 0,inactive: 0,inactive: 0
